This is a selection; strong and weak results do not stand in their true shares. At the low end of the ranking the order means little.
Legend:
Assay in all cases: DAPPL (digital affinity profiling via proximity ligation, sequencing)
Conditions in all cases: 10 mM Tris-HCl pH 7.5, 50 mM NaCl, 1 mM DTT, 4% glycerol, room temperature, 30 min; GST-TFs on glutathione beads, 16-mer random dsDNA library, 0.1% …; high values mean tight binding; double strand, one strand shown; scale: fold enrichment (6-mer frequency, TF over GST control)
FLI1 = target: T1, FLI1 (UniProt Q01543)
T1 sequence: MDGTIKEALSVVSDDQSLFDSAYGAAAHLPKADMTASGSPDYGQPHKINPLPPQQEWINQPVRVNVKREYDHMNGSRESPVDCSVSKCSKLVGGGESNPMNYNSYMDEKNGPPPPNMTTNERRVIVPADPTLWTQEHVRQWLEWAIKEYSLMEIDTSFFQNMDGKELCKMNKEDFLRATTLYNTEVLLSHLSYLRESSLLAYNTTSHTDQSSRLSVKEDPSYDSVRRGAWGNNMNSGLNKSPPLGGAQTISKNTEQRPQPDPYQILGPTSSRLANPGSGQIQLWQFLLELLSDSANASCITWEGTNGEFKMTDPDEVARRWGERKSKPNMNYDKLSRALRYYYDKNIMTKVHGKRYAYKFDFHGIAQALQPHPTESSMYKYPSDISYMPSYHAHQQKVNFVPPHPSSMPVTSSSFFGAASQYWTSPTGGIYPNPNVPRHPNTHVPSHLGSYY

Protein sequences, listed by entry. Tags and fused reporters are not part of them. Lines headed by an entry give the natural chain unless they say otherwise; changes in a name come on top.
UniProt Q01892: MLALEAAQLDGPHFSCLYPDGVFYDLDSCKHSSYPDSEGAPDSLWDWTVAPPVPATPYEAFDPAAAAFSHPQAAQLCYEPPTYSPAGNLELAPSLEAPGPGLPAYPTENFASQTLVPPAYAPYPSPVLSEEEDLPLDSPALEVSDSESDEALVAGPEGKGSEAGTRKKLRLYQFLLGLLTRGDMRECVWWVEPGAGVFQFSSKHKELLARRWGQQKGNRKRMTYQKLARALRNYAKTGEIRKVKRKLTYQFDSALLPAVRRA
UniProt P41161: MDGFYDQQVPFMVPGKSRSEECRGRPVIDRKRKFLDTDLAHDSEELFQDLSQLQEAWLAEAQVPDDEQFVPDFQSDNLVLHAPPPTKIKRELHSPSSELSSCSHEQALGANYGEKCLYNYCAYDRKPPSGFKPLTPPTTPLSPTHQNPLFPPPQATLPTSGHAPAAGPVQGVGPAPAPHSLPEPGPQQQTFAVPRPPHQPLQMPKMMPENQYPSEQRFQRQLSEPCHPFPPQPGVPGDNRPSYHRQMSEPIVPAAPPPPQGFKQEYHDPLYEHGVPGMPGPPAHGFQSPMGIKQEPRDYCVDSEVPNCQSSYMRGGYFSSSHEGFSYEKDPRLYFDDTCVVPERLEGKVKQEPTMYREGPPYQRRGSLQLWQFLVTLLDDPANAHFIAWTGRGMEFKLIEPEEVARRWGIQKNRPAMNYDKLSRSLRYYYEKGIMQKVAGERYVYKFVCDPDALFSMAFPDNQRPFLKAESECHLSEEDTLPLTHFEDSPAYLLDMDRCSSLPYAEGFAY
UniProt Q99607: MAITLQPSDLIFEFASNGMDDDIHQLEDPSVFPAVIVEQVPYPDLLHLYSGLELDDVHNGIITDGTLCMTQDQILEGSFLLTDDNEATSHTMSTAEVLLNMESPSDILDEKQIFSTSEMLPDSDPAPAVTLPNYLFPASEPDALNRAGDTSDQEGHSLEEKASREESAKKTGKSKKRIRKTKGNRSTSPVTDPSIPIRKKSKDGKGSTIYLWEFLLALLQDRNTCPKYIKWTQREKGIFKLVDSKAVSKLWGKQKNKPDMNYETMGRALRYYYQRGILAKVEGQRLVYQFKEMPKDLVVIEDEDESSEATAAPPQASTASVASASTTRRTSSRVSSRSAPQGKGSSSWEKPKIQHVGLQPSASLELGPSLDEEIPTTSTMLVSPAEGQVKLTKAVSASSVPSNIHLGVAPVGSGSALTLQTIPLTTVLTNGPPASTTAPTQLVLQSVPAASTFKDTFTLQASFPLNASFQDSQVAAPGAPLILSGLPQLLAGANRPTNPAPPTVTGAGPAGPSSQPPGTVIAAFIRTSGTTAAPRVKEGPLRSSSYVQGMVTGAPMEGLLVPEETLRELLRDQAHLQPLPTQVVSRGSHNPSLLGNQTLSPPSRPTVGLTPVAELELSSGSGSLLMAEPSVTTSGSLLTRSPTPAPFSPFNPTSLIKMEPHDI

EHF = target: T2, EHF (UniProt Q9NZC4)
T2 sequence: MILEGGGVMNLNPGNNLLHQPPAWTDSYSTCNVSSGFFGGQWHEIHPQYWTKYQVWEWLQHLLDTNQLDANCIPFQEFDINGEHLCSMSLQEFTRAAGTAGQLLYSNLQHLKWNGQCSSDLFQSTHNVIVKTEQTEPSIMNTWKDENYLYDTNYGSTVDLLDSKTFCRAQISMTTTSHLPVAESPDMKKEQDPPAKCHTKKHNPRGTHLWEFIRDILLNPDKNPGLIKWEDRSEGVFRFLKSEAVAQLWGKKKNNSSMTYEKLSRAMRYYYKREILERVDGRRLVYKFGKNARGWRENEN

SPIB = SPIB (UniProt Q01892)
ETV5 = ETV5 (UniProt P41161)
ELF4 = ELF4 (UniProt Q99607)
ETV2 = target: T3, ETV2 (UniProt O00321)
T3 sequence: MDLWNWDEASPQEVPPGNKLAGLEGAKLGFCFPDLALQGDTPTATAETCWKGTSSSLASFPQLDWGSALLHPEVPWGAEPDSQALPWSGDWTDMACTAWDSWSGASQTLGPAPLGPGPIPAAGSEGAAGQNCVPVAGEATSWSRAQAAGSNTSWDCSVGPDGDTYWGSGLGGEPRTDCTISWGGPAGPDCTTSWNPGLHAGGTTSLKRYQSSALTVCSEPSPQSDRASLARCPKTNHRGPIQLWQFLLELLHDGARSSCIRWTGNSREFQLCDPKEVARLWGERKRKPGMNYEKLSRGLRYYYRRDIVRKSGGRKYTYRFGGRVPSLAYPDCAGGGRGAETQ

ETV3L = target: T4, ETV3L (UniProt Q6ZN32)
T4 sequence: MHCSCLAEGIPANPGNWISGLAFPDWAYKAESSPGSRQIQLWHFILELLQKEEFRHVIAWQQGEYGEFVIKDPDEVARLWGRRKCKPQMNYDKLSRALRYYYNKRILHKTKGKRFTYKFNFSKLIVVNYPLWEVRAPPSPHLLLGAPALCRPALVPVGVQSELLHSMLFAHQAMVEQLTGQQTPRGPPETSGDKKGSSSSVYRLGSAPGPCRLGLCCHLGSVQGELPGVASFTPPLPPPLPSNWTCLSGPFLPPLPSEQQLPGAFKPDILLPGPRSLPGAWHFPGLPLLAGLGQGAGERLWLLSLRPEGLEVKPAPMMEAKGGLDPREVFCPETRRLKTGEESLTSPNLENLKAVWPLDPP

Sequence | binding signal (FLI1) | binding signal (EHF) | binding signal (SPIB) | binding signal (ETV5) | binding signal (ELF4) | binding signal (ETV2) | binding signal (ETV3L)
GCGTTA | 0.927 | 0.872 | 0.914 | 0.892 | 0.915 | 0.97 | 
CTAGAC | 0.905 |  | 0.98 | 0.871 | 0.957 | 0.791 | 0.94
TCGTTG | 1.01 | 0.906 | 0.981 | 0.904 | 0.891 | 1.19 | 
ACTAGA | 0.822 |  | 0.957 | 0.901 | 0.96 | 0.978 | 0.971
TGAAGC | 0.963 |  | 0.942 | 1.01 | 0.995 | 0.934 | 0.953
GGCGTT | 0.982 | 0.898 |  | 0.918 | 0.878 | 1.13 | 
AGTTTA | 0.948 | 0.94 |  | 0.907 | 0.94 | 0.976 | 
TGATCA | 1.04 |  | 0.98 | 1.02 | 1.1 | 1.1 | 
GCCCTG | 0.987 | 0.958 |  | 0.998 | 0.977 | 1 | 
CGAATG | 0.993 |  | 0.99 | 0.911 | 1.13 | 1 | 0.995
CACCTG | 0.933 | 0.974 |  | 0.959 | 1.08 | 0.998 | 
CACTAG | 0.985 | 0.977 |  | 0.984 | 0.973 | 0.997 | 
GGATTC | 0.893 | 0.935 | 0.875 | 0.936 | 0.966 | 0.82 | 
CTAGGA | 0.876 |  | 0.926 | 0.932 | 0.957 | 0.993 | 0.979
ATTAGT | 0.971 | 1 | 0.917 | 0.974 | 1.06 | 1.12 | 
AGCATG | 0.996 | 0.885 | 0.927 | 0.963 | 0.992 | 0.834 | 
GTAGAT | 1 | 0.997 | 0.91 | 0.952 | 0.94 | 0.924 | 
TCGAGT | 0.942 | 0.895 | 0.909 | 0.914 | 0.913 | 0.908 | 
GCGGCT | 0.956 |  | 0.952 | 0.974 | 0.886 | 1.08 | 0.99
ACGCGT | 0.983 | 0.869 |  | 0.875 | 0.964 | 0.836 | 
CCACGT | 0.973 | 0.93 |  | 0.973 | 0.977 | 0.974 | 
TCGCAT | 0.979 | 0.975 |  | 0.95 | 0.994 | 0.977 | 
GATCAT | 0.954 | 0.979 | 0.963 | 0.932 | 0.992 | 0.992 | 
ACGAAG | 0.909 | 0.928 | 0.855 | 1 | 1.01 | 0.954 | 
AGTAGC | 0.969 |  | 0.955 | 0.998 | 0.919 | 0.86 | 0.931
GCGTTG | 1.1 | 0.864 | 0.918 | 0.949 | 0.932 | 1.01 | 
TGGTGA | 0.931 |  | 0.873 | 0.905 | 0.941 | 0.881 | 0.973

From PMC7862700
